# Library screen at single concentrations

A: 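Phenotypic screen: M. tuberculosis growth, glucose 7H9 medium, 3 days; the read-out is not stated. Concentration: 50 µM. Higher reads as more growth inhibition (inferred: compounds with an IC50 in retests scored well above the rest). Size under these conditions: about 69,000 compounds, about 760 of them at 50% or above in at least one test.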
B: 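Whole-cell growth test on Mycobacterium tuberculosis, read after 4 days in a medium based on cholesterol and the lipid DPPC; the read-out is not stated. Concentration: 50 µM. Higher reads as more growth inhibition (inferred: compounds with an IC50 in retests scored well above the rest). Of about 69,000 compounds tested this way, about 370 (0.54%) reached 50% or more in at least one test.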

Each number is a percent effect as filed.
The record does not define 0% and 100%; most values in the screen are far below 50% and negative numbers occur (in some assays of this library far below -100).
Compounds were drawn at random from those tested, without regard to their results.
Two or more numbers in one place are separate tests of the same structure; such repeats can differ widely.

{"structure": "Cc1cc(C)c(CNC(=O)C2CCN(c3cnccn3)CC2)c(=O)[nH]1", "A": 16.55, "B": 12.36}
{"structure": "[H][C@@]12CCN(CCN(C)C)[C@@]1([H])CCN2C(=O)c1cccc(Cl)c1", "A": -18.93, "B": "-6.594 and -15.11"}
{"structure": "O=C(NCc1cn2c(n1)CN(Cc1cccc(F)c1)CC2)C1CCC1.O=C(O)C(F)(F)F", "A": "-5.025 and 3.809", "B": 8.717}
{"structure": "COc1ccnc(NC(Cc2ccccc2)C(=O)N(C)C)n1", "stereo": "stereo unspecified", "A": -22.08, "B": "33.38 and 3.454"}
{"structure": "Cc1ncsc1CCC(=O)NC1CCN(c2ncccc2C#N)CC1", "A": "1.592 and -5.356", "B": 22.39}
{"structure": "CCCN1CCC2(CC1)CN(C(=O)c1cccnc1)c1ccc(F)cc12.O=C(O)C(F)(F)F.O=C(O)C(F)(F)F", "A": 8.078, "B": -7.101}
{"structure": "[H][C@@]12CCN(C3CCOCC3)[C@]1([H])CC[C@@H](c1nnc(C)o1)O2", "A": 45.43, "B": -9.558}
{"structure": "Cc1oc(CN(C)C(=O)c2ccc(Br)cc2)cc1C(=O)O", "A": "25.48 and 10.09", "B": "-1.931 and 10.47"}
{"structure": "Cc1nc(NCCCn2cccn2)c2c(n1)c(C)nn2C", "A": 7.226, "B": -14.81}
{"structure": "Cn1cc(N2CCC3(CCCN(Cc4ccc(F)cc4)C3)C2=O)cn1.O=C(O)C(F)(F)F", "stereo": "stereo unspecified", "A": 2.96, "B": -12.33}
{"structure": "Cc1oc(-c2ccsc2)nc1CC(=O)NCCCS(C)(=O)=O", "A": 21.45, "B": -36.23}
{"structure": "CS(=O)(=O)Cc1ccc(C(=O)NCC2Cc3ccccc3O2)cc1", "stereo": "stereo unspecified", "A": 12.86, "B": "4.05 and 1.189"}
{"structure": "O=C(c1cscn1)N1CCc2ncc(CN3CCOCC3)n2CC1", "A": -8.058, "B": "4.872 and 14.1"}
{"structure": "N#Cc1ccc(F)c(CN2CCCC2Cn2cnc3ccccc32)c1", "stereo": "stereo unspecified", "A": 0.02091, "B": -6.454}
{"structure": "Cl.O=C(OCC1CCCN1)c1cccc(NC(=O)c2ccco2)c1", "stereo": "stereo unspecified", "A": "7.672 and 15.86", "B": 18.9}
{"structure": "O=C(O)C(F)(F)F.[H][C@@]12CCN(CC3CCOCC3)[C@@]1([H])CCN2C(=O)c1ccc(C)c(F)c1", "A": -23.87, "B": "-31.82 and -16.2"}
{"structure": "CC(C)CC(=O)N1CC(=O)N(CCc2ccccc2)CC(O)C1", "stereo": "stereo unspecified", "A": -6.99, "B": -9.649}
{"structure": "O=C(O)C(F)(F)F.[H][C@@]12CCCO[C@]1([H])[C@@H](OCC1CCCC1)CN2c1nnc(C)s1", "A": "7.276 and -5.049", "B": 9.511}
{"structure": "COCCC1(C(=O)O)CCCN(Cc2cc3c(cc2Cl)OCO3)C1", "stereo": "stereo unspecified", "A": 25.73, "B": 6.161}
{"structure": "Cc1ncsc1CCN1CCN(C(=O)c2ccc(=O)[nH]c2)CC1", "A": -18.65, "B": -2.647}
{"structure": "COc1ccccc1C(O)Cn1cc(C(=O)NCC2CC2)nn1", "stereo": "stereo unspecified", "A": "13.36 and 0.6686", "B": 18.33}
{"structure": "N#Cc1cccc(CN2CCC3(CC2)CC(c2ccncc2)C(=O)N3)c1.O=C(O)C(F)(F)F.O=C(O)C(F)(F)F", "stereo": "stereo unspecified", "A": -3.062, "B": 1.423}
{"structure": "COc1cc2c(cc1-c1nc3c(cnn3C)[nH]1)OCO2", "A": -41.83, "B": "-76.87 and -67.28"}
{"structure": "COc1cc(C)c(C)cc1S(=O)(=O)NCC(O)c1cccn1C", "stereo": "stereo unspecified", "A": "8.43 and 10.42", "B": -4.152}
{"structure": "CC(C(=O)N(C)Cc1ccco1)n1cncn1", "stereo": "stereo unspecified", "A": -3.997, "B": 7.199}
{"structure": "CC(COc1ccccc1)NCc1cn2ccccc2n1", "stereo": "stereo unspecified", "A": -29.56, "B": -7.04}
{"structure": "O=C(Cc1cccs1)N1CCOCC1c1ccccc1", "stereo": "stereo unspecified", "A": "-4.002 and -20.01", "B": -11.54}
{"structure": "O=C(O)C(F)(F)F.[H][C@]12CC[C@@]3(N=C(CC)N(C)C3=O)[C@@]1([H])CN(Cc1cccc(Cl)c1)C2", "A": -4.433, "B": 0.2928}
{"structure": "CCCC1CCCN(C(=O)Nc2cccnc2OC)CC1", "stereo": "stereo unspecified", "A": 1.161, "B": -12.54}
{"structure": "CC1c2ncc(Cn3cncn3)n2CCN1C(=O)N(C)C", "stereo": "stereo unspecified", "A": 23.86, "B": -5.054}
{"structure": "O=C(C1CCCCN1Cc1nccn1CC(F)(F)F)N1CCCC1", "stereo": "stereo unspecified", "A": "7.159 and 0.2031", "B": -8.128}
{"structure": "CN(Cc1nnc2n1CCC2)S(=O)(=O)c1ccc(Br)cc1Cl", "A": -2.927, "B": -7.868}
{"structure": "CC1(C)CNC(=O)c2nc(-c3nnn[nH]3)[nH]c2C1", "A": 15.87, "B": -4.633}
{"structure": "CN(Cc1nc(-c2ccoc2)no1)C1CCCN(c2cccnn2)C1", "stereo": "stereo unspecified", "A": -16.11, "B": -31.36}
{"structure": "NC(=O)CC1CCCCN1C(=O)c1ccc2cc[nH]c2c1", "stereo": "stereo unspecified", "A": -23.09, "B": -12.8}
{"structure": "CNC(=O)CNC(=O)Nc1ccc(F)c(Br)c1", "A": "-8.835 and -12.74", "B": 8.507}
{"structure": "[H][C@@]12CNC(=O)N1CCN(Cc1ccccn1)C2", "A": "-5.946 and -6.559", "B": 0.4965}
{"structure": "Cc1cc(CN2CCC(CNC(=O)c3noc4c3CCCC4)C2)[nH]n1", "stereo": "stereo unspecified", "A": "5.253 and -0.4292", "B": "0.5711 and -1.913"}
{"structure": "CS(=O)(=O)NCC1CCCN(c2ccc(C#N)cn2)C1", "stereo": "stereo unspecified", "A": -15.36, "B": -17.59}
{"structure": "CCn1nc(C)c(CCNC(=O)C2CCCN(C(C)=O)C2)c1C", "stereo": "stereo unspecified", "A": -6.256, "B": 20.04}
{"structure": "CN(C)C(=O)N1Cc2ccccc2C2(CCNCC2)C1.Cl", "A": -5.866, "B": -2.495}
{"structure": "CCc1nccn1-c1cncc(C2CCCN2CC(=O)N2CCCC2)n1", "stereo": "stereo unspecified", "A": -16.6, "B": -18.55}
{"structure": "CC(Cn1cc(Br)cn1)C(=O)Nc1ccc(C(N)=O)cc1", "stereo": "stereo unspecified", "A": 6.473, "B": -9.916}
{"structure": "[H][C@@]12CCC(=O)N(CCC3=CCCCC3)[C@]1([H])CCN(C1CCOCC1)C2", "A": 10.91, "B": "4.353 and 11.13"}
{"structure": "Cc1csc(C2CCCN(C(=O)c3cc(Cl)c[nH]3)C2)n1", "stereo": "stereo unspecified", "A": 32.11, "B": 2.913}
{"structure": "CN1CCn2c(-c3cnn(C)c3)cnc2C12CCN(CC1CC1)CC2.O=C(O)C(F)(F)F.O=C(O)C(F)(F)F.O=C(O)C(F)(F)F", "A": "-34.9 and -1.188", "B": -22.31}
{"structure": "Cl.Cl.Cl.O[C@@H]1C[C@@](CNCc2ccccn2)(COc2cccnc2)C[C@@H]1O", "A": "-1.758 and -10.85", "B": -16.23}
{"structure": "O=C(NC1CC1)c1cnc2n1CCCC2", "A": "-23.17 and 5.241", "B": -18.89}

The values are deposited in ChEMBL (CHEMBL3988442, “University of Dundee, Small-Polar-MMV Screening Library” (2021)).